The assay has as its target Seedling Lethal 1 (SL1/mTERF3) (Arabidopsis thaliana). The experiment in a line: two-hybrid; SL1 as bait (GAL4 DNA binding domain, pGBKT7), PEP complex proteins and chloroplast mTERF proteins as prey (GAL4 activation domain, pGADT7); yeast strain Y2H Gold; growth on SD/-Trp-Leu, SD/-Trp-Leu-His and SD/-Trp-Leu-His-Ade.

Results are given in words; binding and its absence hold for the method and conditions named.

The values below come from paper PMC7772139.

B1: rpoC2 (protein, UniProt P56764 1-1376)
chain: MAERANLVFHNKVIDGTAIKRLISRLIDHFGMAYTSHILDQVKTLGFQQATATSISLGIDDLLTIPSKGWLVQDAEQQSWILEKHHHYGNVHAVEKLRQSIEIWYATSEYLRQEMNPNFRMTDPFNPVHMMSFSGARGNASQVHQLVGMRGLMSDPQGQMIDLPIQSNLREGLSLTEYIISCYGARKGVVDTAVRTSDAGYLTRRLVEVVQHIVVRRTDCGTIRGISVSPRNKNRMMSERIFIQTLIGRVLADDIYIGSRCVAFRNQDLGIGLVNRLITFGTQSISIRTPFTCRSTSWICRLCYGRSPTHGDLVELGEAVGIIAGQSIGEPGTQLTLRTFHTGGVFTGGTAEHVRAPYNGKIKFNEDLVHPTRTRHGHPAFLCYIDLSVIIESEDIIHSVTIPPKSFLLVQNDQYVESEQVIAEIREGTYTFHFKERVRKYIYSDSEGEMHWSTDVSHAPEFTYSNVHLLPKTSHLWILSGGSCGSSLIRFSIHKDQDQMNIPFLSAERKSISSLSVNNDQVSQKFFSSDFADPKKLGIYDYSELNGNLGTSHYNLIYSAIFHENSDLLAKRRRNRFLIPFQSIQEQEKEFIPQSGISVEIPINGIFRRNSIFAFFDDPRYRRKSSGILKYGTLKADSIIQKEDMIEYRGVQKIKTKYEMKVDRFFFIPEEVHILPESSAIMVQNYSIIGVDTRLTLNIRSQVGGLIRVEKKKKRIELKIFSGDIHFPDKTDKISRHSGILIPPGRGKKNSKESKKFKNWIYVQRITPTKKKFFVLVRPVATYEIADSINLATLFPQDLFREKDNIQLRVFNYILYGNGKPTRGISDTSIQLVRTCLVLNWDKNSSLEEVRAFFVEVSTKGLIQDFIRIGLVKSHISYIRKRNNSPDSGLISADHMNPFYSISPKSGILQQSLRQNHGTIRMFLNRNKESQSLLILSSSNCFRMGPFNHVKHHNVINQSIKKNTLITIKNSSGPLGTATPISNFYSFLPLLTYNQISLIKYFQLDNLKYIFQKINSYLIDENGIILNLDPYSNVVLNPFKLNWYFLHQNYHHNYCEETSTIISLGQFFCENVCIAKKEPHLKSGQVLIVQRDSAVIRSAKPYLATPGAKVHGHYSEILYEGDTLVTFIYEKSRSGDITQGLPKVEQVLEVRSIDSISLNLEKRIKGWNKCITRILGIPWGFLIGAELTIVQSRISLVNKIQKVYRSQGVQIHNRHIEIIVRQITSKVLVSEEGMSNVFLPGELIGLLRAERTGRALEEAICYRAVLLGITRASLNTQSFISEASFQETARVLAKAALRGRIDWLKGLKENVVLGGVIPAGTGFNKGLVHCSRQHTNIILEKKTKNLALFEGDMRDILFYHREFCDSSISKSDFSRI
On to B1, for which the binding entry was “no binding”.

B2: PAP2/PTAC2 (protein, UniProt Q9S7Q2 1-862)
chain: MNLAIPNPNSHHLSFLIQNSSFIGNRRFADGNRLRFLSGGNRKPCSFSGKIKAKTKDLVLGNPSVSVEKGKYSYDVESLINKLSSLPPRGSIARCLDIFKNKLSLNDFALVFKEFAGRGDWQRSLRLFKYMQRQIWCKPNEHIYTIMISLLGREGLLDKCLEVFDEMPSQGVSRSVFSYTALINAYGRNGRYETSLELLDRMKNEKISPSILTYNTVINACARGGLDWEGLLGLFAEMRHEGIQPDIVTYNTLLSACAIRGLGDEAEMVFRTMNDGGIVPDLTTYSHLVETFGKLRRLEKVCDLLGEMASGGSLPDITSYNVLLEAYAKSGSIKEAMGVFHQMQAAGCTPNANTYSVLLNLFGQSGRYDDVRQLFLEMKSSNTDPDAATYNILIEVFGEGGYFKEVVTLFHDMVEENIEPDMETYEGIIFACGKGGLHEDARKILQYMTANDIVPSSKAYTGVIEAFGQAALYEEALVAFNTMHEVGSNPSIETFHSLLYSFARGGLVKESEAILSRLVDSGIPRNRDTFNAQIEAYKQGGKFEEAVKTYVDMEKSRCDPDERTLEAVLSVYSFARLVDECREQFEEMKASDILPSIMCYCMMLAVYGKTERWDDVNELLEEMLSNRVSNIHQVIGQMIKGDYDDDSNWQIVEYVLDKLNSEGCGLGIRFYNALLDALWWLGQKERAARVLNEATKRGLFPELFRKNKLVWSVDVHRMSEGGMYTALSVWLNDINDMLLKGDLPQLAVVVSVRGQLEKSSAARESPIAKAAFSFLQDHVSSSFSFTGWNGGRIMCQRSQLKQLLSTKEPTSEESENKNLVALANSPIFAAGTRASTSSDTNHSGNPTQRRTRTKKELAGSTA
With B2, the binding entry is “no binding”.
